This passage reports binding results from article doi:10.1101/2025.05.30.657000.

Sequences of proteins named here, by UniProt entry; tags and fusion partners are left off. A change or cut given only in a name is not applied to a line headed by its entry.
UniProt P10415: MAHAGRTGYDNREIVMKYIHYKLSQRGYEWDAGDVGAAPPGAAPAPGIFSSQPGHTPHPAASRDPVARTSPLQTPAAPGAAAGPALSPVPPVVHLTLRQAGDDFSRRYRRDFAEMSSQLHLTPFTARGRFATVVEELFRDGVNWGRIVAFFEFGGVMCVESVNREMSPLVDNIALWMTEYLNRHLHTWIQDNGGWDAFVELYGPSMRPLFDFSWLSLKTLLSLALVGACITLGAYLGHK
UniProt Q07817: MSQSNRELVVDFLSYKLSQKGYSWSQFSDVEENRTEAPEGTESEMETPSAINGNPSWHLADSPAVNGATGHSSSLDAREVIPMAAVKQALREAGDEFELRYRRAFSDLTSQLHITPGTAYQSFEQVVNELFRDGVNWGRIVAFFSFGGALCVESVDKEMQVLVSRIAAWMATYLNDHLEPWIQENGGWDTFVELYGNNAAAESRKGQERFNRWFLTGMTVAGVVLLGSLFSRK
UniProt Q07812: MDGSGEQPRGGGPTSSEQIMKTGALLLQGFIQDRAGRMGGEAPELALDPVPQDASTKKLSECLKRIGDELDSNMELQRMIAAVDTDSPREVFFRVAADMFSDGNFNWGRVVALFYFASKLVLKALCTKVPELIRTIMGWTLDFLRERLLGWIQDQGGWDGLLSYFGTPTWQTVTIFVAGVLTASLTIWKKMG

Where two headings read alike, the source gives them in different places. Results are given in words; binding and its absence hold for the method and conditions named. In cells and extracts the contact can be indirect. A yes stands for co-enrichment or nearness to the bait. Other partners may have been found.

Experiment in all cases: proximity labelling
Assay [1] concerns the target BirA*-Bcl-2 (UniProt P10415).
The target in assay [2] is BirA*-Bcl-2 (UniProt P10415). This is another data set of the same source.
In assay [3] the target is BirA*-Bcl-XL (UniProt Q07817).
In a further assay the target is BirA*-BaxS184V (UniProt Q07812).
Assay [4] has as its target BirA*-Bcl-XL (UniProt Q07817). This is another data set of the same source.

B1: BANF1 (protein, UniProt O75531 1-89)
chain: MTTSQKHRDFVAEPMGEKPVGSLAGIGEVLGKKLEERGFDKAYVVLGQFLVLKKDEDLFREWLKDTCGANAKQSRDCFGCLREWCDAFL
Regarding B1, the binding entry in the assay with BirA*-Bcl-2 [1] and in the assay with BirA*-Bcl-2 [2] was “binds” each time.

B2: syntaxin 5 (protein, UniProt Q13190 1-355)
chain: MIPRKRYGSKNTDQGVYLGLSKTQVLSPATAGSSSSDIAPLPPPVTLVPPPPDTMSCRDRTQEFLSACKSLQTRQNGIQTNKPALRAVRQRSEFTLMAKRIGKDLSNTFAKLEKLTILAKRKSLFDDKAVEIEELTYIIKQDINSLNKQIAQLQDFVRAKGSQSGRHLQTHSNTIVVSLQSKLASMSNDFKSVLEVRTENLKQQRSRREQFSRAPVSALPLAPNHLGGGAVVLGAESHASKDVAIDMMDSRTSQQLQLIDEQDSYIQSRADTMQNIESTIVELGSIFQQLAHMVKEQEETIQRIDENVLGAQLDVEAAHSEILKYFQSVTSNRWLMVKIFLILIVFFIIFVVFLA
B2: the binding result with BirA*-Bcl-2 [2] was “binds”.

B3: OCIAD1 (protein, UniProt Q9NX40 1-245)
chain: MNGRADFREPNAEVPRPIPHIGPDYIPTEEERRVFAECNDESFWFRSVPLAATSMLITQGLISKGILSSHPKYGSIPKLILACIMGYFAGKLSYVKTCQEKFKKLENSPLGEALRSGQARRSSPPGHYYQKSKYDSSVSGQSSFVTSPAADNIEMLPHYEPIPFSSSMNESAPTGITDHIVQGPDPNLEESPKRKNITYEELRNKNRESYEVSLTQKTDPSVRPMHERVPKKEVKVNKYGDTWDE
On to B3, for which the binding entry with BirA*-Bcl-XL [3] and in the assay with BirA*-BaxS184V was “binds” each time.

B4: Ankle2 (protein, UniProt Q86XL3 1-938)
chain: MLWPRLAAAEWAALAWELLGASVLLIAVRWLVRRLGPRPGGLGRSGTPVPPPSAAAAPASGEMTMDALLARLKLLNPDDLREEIVKAGLKCGPITSTTRFIFEKKLAQALLEQGGRLSSFYHHEAGVTALSQDPQRILKPAEGNPTDQAGFSEDRDFGYSVGLNPPEEEAVTSKTCSVPPSDTDTYRAGATASKEPPLYYGVCPVYEDVPARNERIYVYENKKEALQAVKMIKGSRFKAFSTREDAEKFARGICDYFPSPSKTSLPLSPVKTAPLFSNDRLKDGLCLSESETVNKERANSYKNPRTQDLTAKLRKAVEKGEEDTFSDLIWSNPRYLIGSGDNPTIVQEGCRYNVMHVAAKENQASICQLTLDVLENPDFMRLMYPDDDEAMLQKRIRYVVDLYLNTPDKMGYDTPLHFACKFGNADVVNVLSSHHLIVKNSRNKYDKTPEDVICERSKNKSVELKERIREYLKGHYYVPLLRAEETSSPVIGELWSPDQTAEASHVSRYGGSPRDPVLTLRAFAGPLSPAKAEDFRKLWKTPPREKAGFLHHVKKSDPERGFERVGRELAHELGYPWVEYWEFLGCFVDLSSQEGLQRLEEYLTQQEIGKKAQQETGEREASCRDKATTSGSNSISVRAFLDEDDMSLEEIKNRQNAARNNSPPTVGAFGHTRCSAFPLEQEADLIEAAEPGGPHSSRNGLCHPLNHSRTLAGKRPKAPRGEEAHLPPVSDLTVEFDKLNLQNIGRSVSKTPDESTKTKDQILTSRINAVERDLLEPSPADQLGNGHRRTESEMSARIAKMSLSPSSPRHEDQLEVTREPARRLFLFGEEPSKLDQDVLAALECADVDPHQFPAVHRWKSAVLCYSPSDRQSWPSPAVKGRFKSQLPDLSGPHSYSPGRNSVAGSNPAKPGLGSPGRYSPVHGSQLRRMARLAELAAL
As to B4, in the assay with BirA*-Bcl-2 [2], the binding entry was “binds”.

B5: CLCC1 (protein, UniProt Q96S66 19-551)
chain: HDDDWIDPTDMLNYDAASGTMRKSQAKYGISGEKDVSPDLSCADEISECYHKLDSLTYKIDECEKKKREDYESQSNPVFRRYLNKILIEAGKLGLPDENKGDMHYDAEIILKRETLLEIQKFLNGEDWKPGALDDALSDILINFKFHDFETWKWRFEDSFGVDPYNVLMVLLCLLCIVVLVATELWTYVRWYTQLRRVLIISFLFSLGWNWMYLYKLAFAQHQAEVAKMEPLNNVCAKKMDWTGSIWEWFRSSWTYKDDPCQKYYELLLVNPIWLVPPTKALAVTFTTFVTEPLKHIGKGTGEFIKALMKEIPALLHLPVLIIMALAILSFCYGAGKSVHVLRHIGGPESEPPQALRPRDRRRQEEIDYRPDGGAGDADFHYRGQMGPTEQGPYAKTYEGRREILRERDVDLRFQTGNKSPEVLRAFDVPDAEAREHPTVVPSHKSPVLDTKPKETGGILGEGTPKESSTESSQSAKPVSGQDTSGNTEGSPAAEKAQLKSEAAGSPDQGSTYSPARGVAGPRGQDPVSSPCG
Regarding B5, the binding entry with BirA*-Bcl-2 [1] and with BirA*-Bcl-2 [2] was “binds” in each case.

B6: Hexokinase 1 (protein, UniProt P19367 1-917)
chain: MIAAQLLAYYFTELKDDQVKKIDKYLYAMRLSDETLIDIMTRFRKEMKNGLSRDFNPTATVKMLPTFVRSIPDGSEKGDFIALDLGGSSFRILRVQVNHEKNQNVHMESEVYDTPENIVHGSGSQLFDHVAECLGDFMEKRKIKDKKLPVGFTFSFPCQQSKIDEAILITWTKRFKASGVEGADVVKLLNKAIKKRGDYDANIVAVVNDTVGTMMTCGYDDQHCEVGLIIGTGTNACYMEELRHIDLVEGDEGRMCINTEWGAFGDDGSLEDIRTEFDREIDRGSLNPGKQLFEKMVSGMYLGELVRLILVKMAKEGLLFEGRITPELLTRGKFNTSDVSAIEKNKEGLHNAKEILTRLGVEPSDDDCVSVQHVCTIVSFRSANLVAATLGAILNRLRDNKGTPRLRTTVGVDGSLYKTHPQYSRRFHKTLRRLVPDSDVRFLLSESGSGKGAAMVTAVAYRLAEQHRQIEETLAHFHLTKDMLLEVKKRMRAEMELGLRKQTHNNAVVKMLPSFVRRTPDGTENGDFLALDLGGTNFRVLLVKIRSGKKRTVEMHNKIYAIPIEIMQGTGEELFDHIVSCISDFLDYMGIKGPRMPLGFTFSFPCQQTSLDAGILITWTKGFKATDCVGHDVVTLLRDAIKRREEFDLDVVAVVNDTVGTMMTCAYEEPTCEVGLIVGTGSNACYMEEMKNVEMVEGDQGQMCINMEWGAFGDNGCLDDIRTHYDRLVDEYSLNAGKQRYEKMISGMYLGEIVRNILIDFTKKGFLFRGQISETLKTRGIFETKFLSQIESDRLALLQVRAILQQLGLNSTCDDSILVKTVCGVVSRRAAQLCGAGMAAVVDKIRENRGLDRLNVTVGVDGTLYKLHPHFSRIMHQTVKELSPKCNVSFLLSEDGSGKGAALITAVGVRLRTEASS
Regarding B6, the binding result with BirA*-Bcl-XL [4] was “binds”.

B7: MFF (protein, UniProt Q9GZY8 1-342)
chain: MSKGTSSDTSLGRVSRAAFPSPTAAEMAEISRIQYEMEYTEGISQRMRVPEKLKVAPPNADLEQGFQEGVPNASVIMQVPERIVVAGNNEDVSFSRPADLDLIQSTPFKPLALKTPPRVLTLSERPLDFLDLERPPTTPQNEEIRAVGRLKRERSMSENAVRQNGQLVRNDSLWHRSDSAPRNKISRFQAPISAPEYTVTPSPQQARVCPPHMLPEDGANLSSARGILSLIQSSTRRAYQQILDVLDENRRPVLRGGSAAATSNPHHDNVRYGISNIDTTIEGTSDDLTVVDAASLRRQIIKLNRRLQLLEEENKERAKREMVMYSITVAFWLLNSWLWFRR
As for B7, the binding entry in the assay with BirA*-Bcl-XL [4] and with BirA*-Bcl-XL [3] was “binds” throughout.

B8: PTPN1 (protein, UniProt P18031 1-435)
chain: MEMEKEFEQIDKSGSWAAIYQDIRHEASDFPCRVAKLPKNKNRNRYRDVSPFDHSRIKLHQEDNDYINASLIKMEEAQRSYILTQGPLPNTCGHFWEMVWEQKSRGVVMLNRVMEKGSLKCAQYWPQKEEKEMIFEDTNLKLTLISEDIKSYYTVRQLELENLTTQETREILHFHYTTWPDFGVPESPASFLNFLFKVRESGSLSPEHGPVVVHCSAGIGRSGTFCLADTCLLLMDKRKDPSSVDIKKVLLEMRKFRMGLIQTADQLRFSYLAVIEGAKFIMGDSSVQDQWKELSHEDLEPPPEHIPPPPRPPKRILEPHNGKCREFFPNHQWVKEETQEDKDCPIKEEKGSPLNAAPYGIESMSQDTEVRSRVVGGSLRGAQAASPAKGEPSLPEKDEDHALSYWKPFLVNMCVATVLTAGAYLCYRFLFNSNT
As for B8, the binding result in the assay with BirA*-Bcl-2 [1] and in the assay with BirA*-BaxS184V was “binds” throughout.

B9: TMEM201 (protein, UniProt Q5SNT2 1-666)
chain: MEGVSALLARCPTAGLAGGLGVTACAAAGVLLYRIARRMKPTHTMVNCWFCNQDTLVPYGNRNCWDCPHCEQYNGFQENGDYNKPIPAQYLEHLNHVVSSAPSLRDPSQPQQWVSSQVLLCKRCNHHQTTKIKQLAAFAPREEGRYDEEVEVYRHHLEQMYKLCRPCQAAVEYYIKHQNRQLRALLLSHQFKRREADQTHAQNFSSAVKSPVQVILLRALAFLACAFLLTTALYGASGHFAPGTTVPLALPPGGNGSATPDNGTTPGAEGWRQLLGLLPEHMAEKLCEAWAFGQSHQTGVVALGLLTCLLAMLLAGRIRLRRIDAFCTCLWALLLGLHLAEQHLQAASPSWLDTLKFSTTSLCCLVGFTAAVATRKATGPRRFRPRRFFPGDSAGLFPTSPSLAIPHPSVGGSPASLFIPSPPSFLPLANQQLFRSPRRTSPSSLPGRLSRALSLGTIPSLTRADSGYLFSGSRPPSQVSRSGEFPVSDYFSLLSGSCPSSPLPSPAPSVAGSVASSSGSLRHRRPLISPARLNLKGQKLLLFPSPPGEAPTTPSSSDEHSPHNGSLFTMEPPHVPRKPPLQDVKHALDLRSKLERGSACSNRSIKKEDDSSQSSTCVVDTTTRGCSEEAATWRGRFGPSLVRGLLAVSLAANALFTSVFLYQSLR
In the case of B9, the binding entry with BirA*-Bcl-2 [2] is on record as “binds”.
